Laboratory results reported in PMC4219786, “Glycan Dependence of Galectin-3 Self-Association Properties” (PLoS ONE, 2014).
Results are given in words; binding and its absence hold for the method and conditions named. Some entries that bind do so weakly or less than the wild type.

Chains of the proteins cited; added tags and fusions are not shown. Residues count along the entry.
human Galectin-3 N-terminal domain (13-113) (P17931, residues 13-113): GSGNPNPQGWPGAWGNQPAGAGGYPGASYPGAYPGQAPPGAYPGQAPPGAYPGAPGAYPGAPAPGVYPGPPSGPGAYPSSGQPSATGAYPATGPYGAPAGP
human Galectin-3 Carbohydrate Recognition Domain (114-250) (P17931, residues 114-250): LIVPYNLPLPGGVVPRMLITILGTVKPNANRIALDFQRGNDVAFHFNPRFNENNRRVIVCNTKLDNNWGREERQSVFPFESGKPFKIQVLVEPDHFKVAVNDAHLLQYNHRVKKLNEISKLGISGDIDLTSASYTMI

Target: human Galectin-3 Carbohydrate Recognition Domain (114-250) (human) (UniProt P17931)
Test: NMR chemical shift mapping (1H-15N HSQC spectra compared); spectra of free 15N CRD (40 µM) and free 15N N-terminal domain (30 µM) compared with 15N full length Galectin-3 (30 µM); the two domains on one chain in FL; 5 mM potassium phosphate pH 7.4; both purified

binding: binds
Substance: human Galectin-3 N-terminal domain (13-113) (from UniProt P17931 13-113) (domain or fragment)
